Measurements: paper PMC6073118
Results are given in words; binding and its absence hold for the method and conditions named. In cells and extracts the contact can be indirect. Binding can be weak; no strength is given.

Molecular target: T1, Tic55 (A. thaliana (endogenous in isolated chloroplasts)) (UniProt Q9SK50)
T1 sequence: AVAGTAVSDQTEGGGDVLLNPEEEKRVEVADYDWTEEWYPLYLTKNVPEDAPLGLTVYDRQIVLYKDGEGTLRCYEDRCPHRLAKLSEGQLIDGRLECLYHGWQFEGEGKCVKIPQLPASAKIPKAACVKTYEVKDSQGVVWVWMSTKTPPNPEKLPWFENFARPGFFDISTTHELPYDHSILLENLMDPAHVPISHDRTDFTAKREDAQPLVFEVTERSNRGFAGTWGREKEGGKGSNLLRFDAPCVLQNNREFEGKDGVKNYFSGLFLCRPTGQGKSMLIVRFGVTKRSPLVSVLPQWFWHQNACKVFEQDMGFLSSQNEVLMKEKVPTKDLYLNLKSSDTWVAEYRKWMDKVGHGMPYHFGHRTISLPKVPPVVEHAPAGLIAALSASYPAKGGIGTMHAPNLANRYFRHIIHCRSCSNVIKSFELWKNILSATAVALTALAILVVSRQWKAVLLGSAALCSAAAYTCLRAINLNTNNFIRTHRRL
Assay: co-IP; isolated chloroplasts of wild-type A. thaliana treated with 0.5 mM DSP (quenched with 50 mM glycine) and hypotonic buffer; membrane pellet solubilised in 25 mM HEPES-KOH pH 8.0, 50 mM KCl, 4% Tx-100, 20% glycerol; IP with anti-Tic55 antibody or preimmune serum and protein A, 4 °C; blots with anti-Tic110, anti-Hsp93, anti-Tic40

binding: binds
Substance: Hsp93
